# Screening data, single-dose tests

Protein sequences, listed by entry. Tags and fused reporters are not part of them. Residues count along the entry.
UniProt I6X8D2, whole entry: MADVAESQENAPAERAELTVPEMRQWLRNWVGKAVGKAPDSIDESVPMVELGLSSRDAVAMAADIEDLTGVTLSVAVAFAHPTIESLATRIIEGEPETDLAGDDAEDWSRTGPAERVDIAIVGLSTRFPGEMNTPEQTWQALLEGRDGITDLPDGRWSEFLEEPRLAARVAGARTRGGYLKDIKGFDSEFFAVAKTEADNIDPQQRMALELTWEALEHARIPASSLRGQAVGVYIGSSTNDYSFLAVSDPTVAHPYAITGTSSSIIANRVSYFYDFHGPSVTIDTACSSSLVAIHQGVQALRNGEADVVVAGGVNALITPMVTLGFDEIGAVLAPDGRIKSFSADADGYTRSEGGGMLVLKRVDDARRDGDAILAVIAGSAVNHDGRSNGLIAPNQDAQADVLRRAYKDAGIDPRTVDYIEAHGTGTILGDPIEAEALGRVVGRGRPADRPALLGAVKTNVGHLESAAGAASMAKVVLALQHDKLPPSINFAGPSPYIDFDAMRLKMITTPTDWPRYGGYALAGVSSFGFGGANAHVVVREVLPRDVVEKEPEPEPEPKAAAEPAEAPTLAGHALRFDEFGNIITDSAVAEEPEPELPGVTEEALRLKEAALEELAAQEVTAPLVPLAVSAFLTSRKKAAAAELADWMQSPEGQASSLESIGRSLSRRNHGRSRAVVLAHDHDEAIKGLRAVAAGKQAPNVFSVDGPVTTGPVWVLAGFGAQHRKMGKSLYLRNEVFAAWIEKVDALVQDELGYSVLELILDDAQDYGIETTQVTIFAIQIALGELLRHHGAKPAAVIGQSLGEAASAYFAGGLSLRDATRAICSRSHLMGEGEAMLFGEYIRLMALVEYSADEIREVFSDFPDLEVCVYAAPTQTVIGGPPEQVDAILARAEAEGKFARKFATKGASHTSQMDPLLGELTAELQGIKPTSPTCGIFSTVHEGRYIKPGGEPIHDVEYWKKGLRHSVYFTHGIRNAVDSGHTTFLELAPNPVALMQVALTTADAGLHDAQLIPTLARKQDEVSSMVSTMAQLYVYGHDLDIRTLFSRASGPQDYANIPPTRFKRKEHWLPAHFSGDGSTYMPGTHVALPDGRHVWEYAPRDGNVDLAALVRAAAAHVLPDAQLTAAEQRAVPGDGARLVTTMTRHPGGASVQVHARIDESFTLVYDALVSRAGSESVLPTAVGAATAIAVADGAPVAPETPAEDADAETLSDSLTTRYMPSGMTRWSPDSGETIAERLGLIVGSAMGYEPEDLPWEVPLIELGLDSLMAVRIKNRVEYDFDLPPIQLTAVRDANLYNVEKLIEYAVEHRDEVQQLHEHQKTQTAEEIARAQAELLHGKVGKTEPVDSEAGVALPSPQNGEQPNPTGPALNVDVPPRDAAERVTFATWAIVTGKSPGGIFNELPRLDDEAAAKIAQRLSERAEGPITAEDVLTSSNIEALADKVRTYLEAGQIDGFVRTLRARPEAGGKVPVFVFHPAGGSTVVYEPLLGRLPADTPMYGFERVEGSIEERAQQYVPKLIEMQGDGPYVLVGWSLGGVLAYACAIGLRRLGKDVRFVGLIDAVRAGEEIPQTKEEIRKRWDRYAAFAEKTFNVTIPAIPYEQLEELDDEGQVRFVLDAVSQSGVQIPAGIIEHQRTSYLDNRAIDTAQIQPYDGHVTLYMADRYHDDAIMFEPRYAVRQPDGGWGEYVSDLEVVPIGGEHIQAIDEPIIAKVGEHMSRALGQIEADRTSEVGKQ
UniProt A4I591, 1-473: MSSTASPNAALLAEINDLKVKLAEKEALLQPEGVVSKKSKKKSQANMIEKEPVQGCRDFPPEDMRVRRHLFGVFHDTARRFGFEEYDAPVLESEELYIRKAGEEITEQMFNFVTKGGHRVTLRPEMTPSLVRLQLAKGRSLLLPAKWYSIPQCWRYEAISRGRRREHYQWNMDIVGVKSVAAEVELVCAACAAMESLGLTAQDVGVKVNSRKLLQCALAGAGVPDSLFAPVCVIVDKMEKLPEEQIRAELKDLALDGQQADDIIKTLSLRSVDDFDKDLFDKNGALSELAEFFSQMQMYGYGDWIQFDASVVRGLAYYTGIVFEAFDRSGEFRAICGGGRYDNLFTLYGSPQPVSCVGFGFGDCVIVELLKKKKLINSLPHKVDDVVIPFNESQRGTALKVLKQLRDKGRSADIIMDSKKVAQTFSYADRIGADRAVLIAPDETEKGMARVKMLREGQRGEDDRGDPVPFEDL
UniProt P9WNZ1, whole entry: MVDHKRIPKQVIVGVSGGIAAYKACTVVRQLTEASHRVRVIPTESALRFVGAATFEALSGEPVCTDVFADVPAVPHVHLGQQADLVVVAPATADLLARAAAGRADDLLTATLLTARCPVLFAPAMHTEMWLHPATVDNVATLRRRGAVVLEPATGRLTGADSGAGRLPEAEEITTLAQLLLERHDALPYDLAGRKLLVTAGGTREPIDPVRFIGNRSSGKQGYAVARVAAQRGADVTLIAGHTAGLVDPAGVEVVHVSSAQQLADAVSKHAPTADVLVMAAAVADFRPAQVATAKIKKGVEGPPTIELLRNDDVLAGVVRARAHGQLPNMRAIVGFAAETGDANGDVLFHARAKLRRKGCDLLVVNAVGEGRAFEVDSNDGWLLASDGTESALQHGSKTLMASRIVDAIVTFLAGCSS

From ChEMBL document CHEMBL3988442, “University of Dundee, Small-Polar-MMV Screening Library” (2021).

Pks13 thioesterase: 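Enzyme assay of the thioesterase domain of polyketide synthase 13; the read-out is not stated. Target: Polyketide synthase Pks13, Mycobacterium tuberculosis (UniProt I6X8D2). Tested at 30 µM. Higher reads as stronger inhibition (inferred from which compounds were picked for retests). About 67,000 compounds were tested under these conditions; 0.46% (about 300) showed 50% or more at least once.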
LiHisRS: 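Histidine-tRNA ligase, Leishmania infantum (UniProt A4I591). Enzyme assay of histidyl-tRNA synthetase; the read-out is not stated. Tested at 30 µM. Direction is inferred from retests: higher values go with stronger inhibition. The assay is labelled LdHisRS but filed under L. infantum. About 69,000 compounds were tested under these conditions; 0.6% (about 410) showed 50% or more at least once.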
CoaBC: 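Coenzyme A biosynthesis protein CoaBC, Mycobacterium tuberculosis (UniProt P9WNZ1). Enzyme assay of CoaBC with a phosphate dye (Biomol Green) read at 650 nm. Compounds at 30 µM. Direction is inferred from only a few compounds that gave an IC50; most scored high, so higher reads as stronger inhibition. Most strong results did not repeat in a second test. Size under these conditions: about 67,000 compounds, about 40 of them at 50% or above in at least one test.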

Each number is a percent effect as filed. The record does not define 0% and 100%; most values in the screen are far below 50% and negative numbers occur (in some assays of this library far below -100). This is an unselected part of the compounds tested.

- Cc1ccc(C2=CCN(C(=O)C3CCN(C)C(=O)C3)CC2)cc1 (stereo not drawn) : Pks13 thioesterase: 7.94%; LiHisRS: 24.11%; CoaBC: -0.1277%
- COc1ccc(C[C@H]2CN(C(=O)c3ccn(C)n3)CC[C@H]2OC)cc1 : Pks13 thioesterase: -24.9%; LiHisRS: 5.769%; CoaBC: 2.188%
- CC(C)CNC[C@H]1COCc2nc3cccnc3n21 : Pks13 thioesterase: 13.06%; LiHisRS: 0%; CoaBC: -2.903%
- CNC(=O)c1ccc(OC)c(NCc2ncc(-c3cccs3)o2)c1 : Pks13 thioesterase: -9.917%; LiHisRS: 24.69%; CoaBC: -1.665%
- c1coc(CN2CCC3(CC2)CC(N2CCCC2)CO3)c1 (stereo not drawn) : Pks13 thioesterase: -0.5256%; LiHisRS: 0%; CoaBC: -1.781%
- O=C(NCCCn1cccn1)c1nnc2ccccc2n1 : Pks13 thioesterase: 6.978%; LiHisRS: 17.7%; CoaBC: -0.3444%
- CC(C)=CCN1Cc2nnc(C3CCOCC3)n2C(Cc2c[nH]cn2)C1 (stereo not drawn) : Pks13 thioesterase: -19.92%; LiHisRS: 5.479%; CoaBC: 9.046%
- CCn1cnnc1C1CCN(C(=O)c2cnc(C3CC3)s2)CC1 : Pks13 thioesterase: -30.22%; LiHisRS: 7.865%; CoaBC: 1.799%
- O=C(NCc1cn2c(n1)CN(Cc1ccncc1)CC2)C1CCC1 : Pks13 thioesterase: 18.06%; LiHisRS: -2.857%; CoaBC: -2.28%
- Cc1cccc(C(=O)Nc2cccc3c2C(=O)NC3)n1 : Pks13 thioesterase: -24.9%; LiHisRS: 23.94%; CoaBC: 10.98%
- O=C(NCCN1CCC(c2cccs2)CC1)c1ccccc1C(F)(F)F : Pks13 thioesterase: -16.99%; LiHisRS: 21.15%; CoaBC: -13.86%
- CS(=O)(=O)CCC(=O)N1C[C@@H]2CC[C@H](C1)N(Cc1ccccn1)C2=O : Pks13 thioesterase: 5.501%; LiHisRS: 18.03%; CoaBC: 9.013%
- CN(C)CCO[C@@H]1CC[C@H]2[C@H]1OCCN2C(=O)c1ccc(F)cc1 : Pks13 thioesterase: -26.39%; LiHisRS: 13.89%; CoaBC: -0.7407%
- O=C(NCc1cc(-c2ccccc2)no1)NCC1CCCO1 (stereo not drawn) : Pks13 thioesterase: 2.431%; LiHisRS: 20.41%; CoaBC: 2.149%
- O=c1c(NCCO)c(N2CCN(c3ccccc3)CC2)c1=O : Pks13 thioesterase: 11.37%; LiHisRS: 18.42%; CoaBC: 2.785%
- CC(O)CNc1nc(-c2cccnc2)nc2c1CCC2 (stereo not drawn) : Pks13 thioesterase: -30.37%; LiHisRS: 5.714%; CoaBC: -0.6479%
- Cc1cc(CN2CCN(C(=O)NCc3csc(C)n3)CC2)no1 : Pks13 thioesterase: -21.78%; LiHisRS: -3.571%; CoaBC: -2.5%
- Cc1ccc2c(n1)N(C)CCN(CCN1CCCC1)C2 : Pks13 thioesterase: -29.99%; LiHisRS: 19.3%; CoaBC: -37.84%
- O=C([C@H]1CN(Cc2nccs2)C[C@H]2OCC[C@@H]12)N1CCCC1 : Pks13 thioesterase: -36.34%; LiHisRS: -9%; CoaBC: -4.821%
- CC(=O)N1CC2(CCN(c3ccc4ccccc4n3)CC2)CC1C(=O)O (stereo not drawn) : Pks13 thioesterase: -4.849%; LiHisRS: 18.03%; CoaBC: 5.411%
- O=S1(=O)NC2(CCCN(CCc3ccccc3)C2)COc2ccccc21 (stereo not drawn) : Pks13 thioesterase: -5.929%; LiHisRS: 0%; CoaBC: 3.947%
- CN1CCN(C(=O)CCn2c(C(F)(F)F)cc3cccnc32)CC1 : Pks13 thioesterase: -28.15%; LiHisRS: 7.368%; CoaBC: -3.406%
- CCc1nc(CN2CCCN(C(=O)CCSC)CC2)cs1 : Pks13 thioesterase: -4.954%; LiHisRS: -234%; CoaBC: 6.477%
- CCCC(=O)N1C[C@@H]2CCN(c3cnccn3)C[C@@H]2C1 : Pks13 thioesterase: -30.03%; LiHisRS: 13.76%; CoaBC: 1.647%
- COCCC(=O)N1CCCC(CCC(=O)NCc2cccc(OC)c2)C1 (stereo not drawn) : Pks13 thioesterase: -2.715%; LiHisRS: -3.54%; CoaBC: -0.8805%
- Cc1c[nH]c(CN(C)C(=O)c2ccc(CSc3nnc[nH]3)o2)n1 : Pks13 thioesterase: -72.47%; LiHisRS: 7.5%; CoaBC: -0.8696%
- CCCC(=O)N1CCc2c(CNS(C)(=O)=O)cncc2C1 : Pks13 thioesterase: -25.05%; LiHisRS: 12.5%; CoaBC: 5.549%
- Cn1[nH]c(C2CCC2)c(-c2ccc3c(c2)OCO3)c1=N : Pks13 thioesterase: -9.511%; LiHisRS: 6.383%; CoaBC: 1.985%
- CCNC(=O)NC(=O)CN1CCCC1c1nc(C2CCCCC2)co1 (stereo not drawn) : Pks13 thioesterase: -29.47%; LiHisRS: 5.208%; CoaBC: 1.786%
- CCOC(=O)c1sc(NC(=O)CCCC(=O)O)c(C#N)c1C : Pks13 thioesterase: -6.419%; LiHisRS: 8.85%; CoaBC: 3.789%
- CC(C(=O)NC(N)=O)N1CCN(c2ccc(C#N)cc2F)CC1 (stereo not drawn) : Pks13 thioesterase: 4.721%; LiHisRS: 14.63%; CoaBC: -0.6361%
- CCn1cc(NC(=O)CN2C(=O)CC(C)(C)c3ccccc32)cn1 : Pks13 thioesterase: -0.1803%; LiHisRS: 29.67%; CoaBC: -0.4819%
- CC(C)(C)CC(=O)NCC(=O)Nc1ccn(CCCn2ccnc2)n1 : Pks13 thioesterase: -16.48%; LiHisRS: 30%; CoaBC: 1.392%
- CC(C)Oc1ccccc1CNC(=O)N1CCC(n2cncn2)CC1 : Pks13 thioesterase: -27.7%; LiHisRS: 24.32%; CoaBC: 8.616%
- CCc1nnc2n1CCN(Cc1csc(-c3ccccc3)n1)C2 : Pks13 thioesterase: -33.62%; LiHisRS: 12.12%; CoaBC: 5.72%
- Cc1sc2ncnc(N3CCC(N(C)Cc4cnn(C)c4)CC3)c2c1C : Pks13 thioesterase: -18.65%; LiHisRS: 12.9%; CoaBC: 1.603%
- Cc1ccc(CN(Cc2[nH]cnc2C)C2CC(C)(C)NC(C)(C)C2)o1 : Pks13 thioesterase: -27.5%; LiHisRS: 16.49%; CoaBC: -0.2421%
- NC(=O)c1ccc(C2CCCN2C(=O)Cn2nc3ccccc3n2)s1 (stereo not drawn) : Pks13 thioesterase: -17.01%; LiHisRS: 1.613%; CoaBC: -2.343%
- Oc1cc(-c2cccs2)nc(C2CCCN(CC3=CCCOC3)C2)n1 (stereo not drawn) : Pks13 thioesterase: -8.775%; LiHisRS: 9.929%; CoaBC: 3.263%

The last 4 entries again:

structure,Pks13 thioesterase,LiHisRS,CoaBC
Cc1sc2ncnc(N3CCC(N(C)Cc4cnn(C)c4)CC3)c2c1C,-18.65,12.9,1.603
Cc1ccc(CN(Cc2[nH]cnc2C)C2CC(C)(C)NC(C)(C)C2)o1,-27.5,16.49,-0.2421
NC(=O)c1ccc(C2CCCN2C(=O)Cn2nc3ccccc3n2)s1 (stereo not drawn),-17.01,1.613,-2.343
Oc1cc(-c2cccs2)nc(C2CCCN(CC3=CCCOC3)C2)n1 (stereo not drawn),-8.775,9.929,3.263